In the supplement of paper PMC5949888:
Most values lie at the floor of the assay. Slopes are relative: functional sequences can read slightly below zero.

What follows are substances tested on Saccharomyces cerevisiae PS128 hsf1 delta, HSF1(1-493) fusion (assay: growth estimate (transactivation domain function in HSF1 fusion, heat-shock survival) (a.u. (slope of normalised read count over time)); higher = stronger growth at 37°C, i.e. more transactivation activity). Settings: library: random library.

Substance | growth estimate
VVHG | < -0.25
LWGGVGVTTDE | -0.211
RKPLVQKRLLYGNRLSWRDD | < -0.25
ACDQTLKCRVFEGVSAKRTL | < -0.25
SLGP | < -0.25
GAAIQCGLKATGLRTPDLVA | < -0.25
FFNLIKHDAAGYIGIYENH | < -0.25
TPASRRVV | < -0.25
SGITYP | < -0.25
APRRKKRIYGPGDIDVPVPE | < -0.25
HPARAGKK | < -0.25
SKYPYSLARRIRRVVLPSYP | < -0.25
KGCDRVSCKSQ | < -0.25
TTFKALAPWCR | < -0.25
ETDCRKDLESL | < -0.25
RSKRSAARC | < -0.25
VAILSWYPEGTI | < -0.25
HMLGSTMLPTQ | < -0.25
LRAGRVASKCCQEHSALSNR | < -0.25
KSRIKWATH | < -0.25
DSTPRSPDVDCCDCVN | < -0.25
LNTGILIPDTCVGLVR | < -0.25
VKES | < -0.25
SRLQLFPSIAGCCF | < -0.25
DRMMVYSRSVL | < -0.25
MNSKTRLLAKKLTNVPESPC | < -0.25

Substance | growth estimate
LAAVCREVLELQNRGRAIQY | < -0.25
RRTISSWCLKVRRLRGLLWN | -0.172
PLSEVQADTC | < -0.25
LVGISRVRGSTVCTRGGGIF | < -0.25
GRPVNRLIK | < -0.25
TGLILKCWGPTERIL | < -0.25
QSFVVLRII | < -0.25
VPFTCSVRGELTGGVAAIKT | < -0.25
PMR | -0.174
ECGSALSRIASQLDLGGLFA | < -0.25
EGPTRI | < -0.25
SSMCPELIGPTLGSRQSSQD | < -0.25
LFRYSSYGTGVWRIIRPFFS | < -0.25
SILRGTVPALVH | < -0.25
IILV | < -0.25
GRGGRAG | < -0.25
CLRGRAASQSCQ | < -0.25
IDHGGRDSESGRD | < -0.25
TLR | < -0.25
HWS | < -0.25
PSRDSALWRFNKIIKGTRYP | < -0.25
ILLVRRTPASIKCILG | -0.245
AITVPVPACCVLKR | < -0.25
MLRISMFCTLCSGPLPFGFP | < -0.25
YSVGKQGRWVVARMGVNNGT | < -0.25
ERHWVGSARKSRLQYPARLR | < -0.25

Substance | growth estimate
SQRSVRIRRTVRSIPDRHFR | < -0.25
LWAC | < -0.25
LPNGRS | < -0.25
DDRW | < -0.25
IWFIVRCRLALTHDEHAFCM | < -0.25
SQY | < -0.25
SSLLGRTVS | < -0.25
RLGFRAPLR | < -0.25
LSRGAARLKLVAH | < -0.25
CNRGDLAFRPPTRH | -0.243
VTDIDCEVLMEVDSHGFKLP | < -0.25
HSSEHVDRRRGAKRPERASV | < -0.25
GTGTHLCICGIDQTDIARTR | < -0.25
PSYL | < -0.25
LSSESG | < -0.25
TRMRDQR | < -0.25
TGGGNGNL | < -0.25
HSGVWTRERCGQPFSTPRTN | < -0.25
PRGGRVGCYRVISPLADRSL | < -0.25
RNVCRSALVDDGSRSFTRIP | < -0.25
IDWIIERCTSHLETISI | < -0.25
SVPSIAVSFRVPAGVG | < -0.25
WSVPMTSIQTR | < -0.25
PSTLPLFFL | < -0.25
GMGRLALAQSWNNRVRSVND | < -0.25
PQLGLAT | < -0.25

Single entries from the list.
HSGVWTRERCGQPFSTPRTN – growth estimate: < -0.25
SSLLGRTVS – growth estimate: < -0.25
PQLGLAT – growth estimate: < -0.25
RLGFRAPLR – growth estimate: < -0.25
PRGGRVGCYRVISPLADRSL – growth estimate: < -0.25

Later entries:

Substance | growth estimate
QSTIRMQLSVIRGE | < -0.25
GEFVGQPRGPALALTQSKRS | < -0.25
DNAEACYGGRRIVGRAPFPK | < -0.25
SLTTPALNLKVRMGLRRPPL | < -0.25
EMGNPCCLSKPQKTGPHIRS | < -0.25
LHSGGYEGLL | < -0.25
GLRWL | < -0.25
GGSYQYMSRWIAMLI | < -0.25
SVLRSIFQPIRCKFGPNRPG | < -0.25
ADDGGTVKWLSSSVKFTKQD | < -0.25
VPIHRCFVCVMVFYSPLPES | < -0.25
QGFHLGGIGNVEDFVISVTV | < -0.25
DTDTRLIRSTEGDL | -0.246
GVMYSGVV | < -0.25
HHTVVRRHWRPVLSA | < -0.25
SRE | < -0.25
YPCYTEIAESESLPQLWPA | < -0.25
APTMDLIVCTSQTKPFTVAV | < -0.25
KLIFDRRLSCRSRLNSD | < -0.25
PRNAGKADCPPV | < -0.25
GMGLLG | < -0.25
PVRFGDH | < -0.25
FSTCLRDNDFRGSFV | < -0.25
LDRGSDIQVPSGRGIALGTP | < -0.25
